Data on two molecules can be found in publication PMC3864812.

No constants are given. Whether binding was seen depends on the method and setting. In cells and extracts the contact can be indirect. These calls come from enrichment with a bait or labelling near it, and not all partners need be listed.

This test addresses IE2-p86 protein with a carboxyl-terminal SG-tag (human cytomegalovirus (Towne)). Kind of test: affinity purification with mass spectrometry; tandem affinity purification of IE2-p86SG (rabbit-IgG agarose, TEV protease elution, streptavidin resin, D-biotin elution) from HFF infected with Towne IE2SG at MOI 2, harvested 8, 24 and 48 h p.i.; lysis buffer 50 mM Tris-HCl pH 7.5, 125 mM NaCl, 5% glycerol, 0.5% NP-40, with Benzonase; nanoLC-MS/MS; control Towne-wt.

B1: Heterogeneous nuclear ribonucleoprotein M (HNRNPM) (protein, UniProt P52272 1-730)
chain: MAAGVEAAAEVAATEIKMEEESGAPGVPSGNGAPGPKGEGERPAQNEKRKEKNIKRGGNRFEPYANPTKRYRAFITNIPFDVKWQSLKDLVKEKVGEVTYVELLMDAEGKSRGCAVVEFKMEESMKKAAEVLNKHSLSGRPLKVKEDPDGEHARRAMQKVMATTGGMGMGPGGPGMITIPPSILNNPNIPNEIIHALQAGRLGSTVFVANLDYKVGWKKLKEVFSMAGVVVRADILEDKDGKSRGIGTVTFEQSIEAVQAISMFNGQLLFDRPMHVKMDERALPKGDFFPPERPQQLPHGLGGIGMGLGPGGQPIDANHLNKGIGMGNIGPAGMGMEGIGFGINKMGGMEGPFGGGMENMGRFGSGMNMGRINEILSNALKRGEIIAKQGGGGGGGSVPGIERMGPGIDRLGGAGMERMGAGLGHGMDRVGSEIERMGLVMDRMGSVERMGSGIERMGPLGLDHMASSIERMGQTMERIGSGVERMGAGMGFGLERMAAPIDRVGQTIERMGSGVERMGPAIERMGLSMERMVPAGMGAGLERMGPVMDRMATGLERMGANNLERMGLERMGANSLERMGLERMGANSLERMGPAMGPALGAGIERMGLAMGGGGGASFDRAIEMERGNFGGSFAGSFGGAGGHAPGVARKACQIFVRNLPFDFTWKMLKDKFNECGHVLYADIKMENGKSKGCGVVKFESPEVAERACRMMNGMKLSGREIDVRIDRNA
In the case of B1, the binding entry was “binds”.

B2: Purine-rich element binding protein A (PURA) (protein, UniProt Q00577 1-322)
chain: MADRDSGSEQGGAALGSGGSLGHPGSGSGSGGGGGGGGGGGGSGGGGGGAPGGLQHETQELASKRVDIQNKRFYLDVKQNAKGRFLKIAEVGAGGNKSRLTLSMSVAVEFRDYLGDFIEHYAQLGPSQPPDLAQAQDEPRRALKSEFLVRENRKYYMDLKENQRGRFLRIRQTVNRGPGLGSTQGQTIALPAQGLIEFRDALAKLIDDYGVEEEPAELPEGTSLTVDNKRFFFDVGSNKYGVFMRVSEVKPTYRNSITVPYKVWAKFGHTFCKYSEEMKKIQEKQREKRAACEQLHQQQQQQQEETAAATLLLQGEEEGEED
Turning to B2, the binding entry is reported as “binds”.
